# Experimental data from paper doi:10.1101/2023.08.13.546412 (bioRxiv, 2023).
# No constants are given. Whether binding was seen depends on the method and setting. Some binding calls cover weakened binding; strength is not graded here. Tags and fused reporters may be left off the sequences shown.
# T1: TPR1-BD (TOPLESS-RELATED 1, yeast two-hybrid fusion) (Arabidopsis thaliana) (UniProt Q0WV90)
# T1 sequence: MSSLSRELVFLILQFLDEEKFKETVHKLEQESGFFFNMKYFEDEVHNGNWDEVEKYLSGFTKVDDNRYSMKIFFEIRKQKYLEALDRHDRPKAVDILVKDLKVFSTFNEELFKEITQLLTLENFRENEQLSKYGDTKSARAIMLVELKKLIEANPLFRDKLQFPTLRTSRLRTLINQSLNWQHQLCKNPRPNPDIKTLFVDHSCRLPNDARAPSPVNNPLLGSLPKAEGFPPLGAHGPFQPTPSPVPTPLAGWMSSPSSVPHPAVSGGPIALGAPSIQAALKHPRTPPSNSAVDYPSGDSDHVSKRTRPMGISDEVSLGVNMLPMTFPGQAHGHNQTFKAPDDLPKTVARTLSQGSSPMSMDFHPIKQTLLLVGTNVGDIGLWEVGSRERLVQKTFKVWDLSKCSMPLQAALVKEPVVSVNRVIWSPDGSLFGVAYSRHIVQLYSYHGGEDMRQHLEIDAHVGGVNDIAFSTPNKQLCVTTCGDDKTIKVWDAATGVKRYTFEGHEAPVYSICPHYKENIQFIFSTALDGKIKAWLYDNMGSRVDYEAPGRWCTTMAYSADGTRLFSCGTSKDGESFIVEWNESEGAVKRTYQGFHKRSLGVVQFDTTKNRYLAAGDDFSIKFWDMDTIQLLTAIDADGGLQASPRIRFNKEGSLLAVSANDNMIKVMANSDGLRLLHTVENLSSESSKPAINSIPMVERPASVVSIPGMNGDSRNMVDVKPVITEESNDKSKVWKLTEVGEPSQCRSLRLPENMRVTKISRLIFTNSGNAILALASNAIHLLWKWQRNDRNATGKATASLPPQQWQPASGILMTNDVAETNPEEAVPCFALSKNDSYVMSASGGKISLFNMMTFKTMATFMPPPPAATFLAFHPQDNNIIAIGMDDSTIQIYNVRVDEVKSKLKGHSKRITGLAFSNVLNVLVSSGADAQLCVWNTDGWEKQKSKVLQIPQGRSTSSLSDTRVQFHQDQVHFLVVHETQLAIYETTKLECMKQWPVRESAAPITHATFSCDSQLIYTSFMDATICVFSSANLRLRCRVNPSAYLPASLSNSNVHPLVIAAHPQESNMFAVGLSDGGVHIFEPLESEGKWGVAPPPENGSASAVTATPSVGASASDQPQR
# T2: AtSK23-BD (Arabidopsis SHAGGY-like kinase 23, yeast two-hybrid fusion) (Arabidopsis thaliana) (UniProt Q39010)
# T2 sequence: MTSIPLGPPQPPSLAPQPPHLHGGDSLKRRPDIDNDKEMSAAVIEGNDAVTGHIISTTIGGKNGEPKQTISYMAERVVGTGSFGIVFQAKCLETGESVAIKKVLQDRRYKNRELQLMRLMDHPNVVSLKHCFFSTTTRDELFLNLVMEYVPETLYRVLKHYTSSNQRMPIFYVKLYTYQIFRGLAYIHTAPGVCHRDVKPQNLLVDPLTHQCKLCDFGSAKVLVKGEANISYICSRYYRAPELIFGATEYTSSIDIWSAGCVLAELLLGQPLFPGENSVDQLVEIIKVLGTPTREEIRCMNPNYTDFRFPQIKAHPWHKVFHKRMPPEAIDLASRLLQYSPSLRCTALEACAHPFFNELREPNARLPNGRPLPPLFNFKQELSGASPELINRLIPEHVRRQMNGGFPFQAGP
# T3: AtSK42-BD (Arabidopsis SHAGGY-like kinase 42, yeast two-hybrid fusion) (Arabidopsis thaliana) (UniProt Q9FVS6)
# T3 sequence: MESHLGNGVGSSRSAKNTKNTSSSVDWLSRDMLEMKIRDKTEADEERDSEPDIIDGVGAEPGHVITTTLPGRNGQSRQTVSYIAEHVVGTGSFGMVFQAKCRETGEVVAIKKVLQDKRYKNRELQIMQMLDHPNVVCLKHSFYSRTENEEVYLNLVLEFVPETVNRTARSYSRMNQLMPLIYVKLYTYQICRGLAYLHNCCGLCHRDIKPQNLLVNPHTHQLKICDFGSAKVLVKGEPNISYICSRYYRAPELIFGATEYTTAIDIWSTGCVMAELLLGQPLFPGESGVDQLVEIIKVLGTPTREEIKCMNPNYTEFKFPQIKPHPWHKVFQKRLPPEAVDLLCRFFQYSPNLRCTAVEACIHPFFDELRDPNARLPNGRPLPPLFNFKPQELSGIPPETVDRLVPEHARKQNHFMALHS
# T4: AtSK13-BD (Arabidopsis SHAGGY-like kinase 13, yeast two-hybrid fusion) (Arabidopsis thaliana) (UniProt Q8VZD5)
# T4 sequence: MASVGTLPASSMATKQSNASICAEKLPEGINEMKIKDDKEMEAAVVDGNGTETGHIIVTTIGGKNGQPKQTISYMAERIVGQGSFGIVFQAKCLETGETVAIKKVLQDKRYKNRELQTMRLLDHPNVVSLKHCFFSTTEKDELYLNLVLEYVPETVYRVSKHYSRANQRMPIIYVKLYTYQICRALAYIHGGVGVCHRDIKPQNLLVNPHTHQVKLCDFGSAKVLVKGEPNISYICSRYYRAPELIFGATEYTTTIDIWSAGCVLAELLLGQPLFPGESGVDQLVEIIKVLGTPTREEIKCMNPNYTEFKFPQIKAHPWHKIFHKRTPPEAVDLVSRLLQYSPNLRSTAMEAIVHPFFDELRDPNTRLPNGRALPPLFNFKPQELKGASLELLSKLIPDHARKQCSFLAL
# B1: WOX5-AD (WUSCHEL-RELATED HOMEOBOX 5, yeast two-hybrid fusion) (protein, UniProt Q8H1D2 1-182)
# chain: MSFSVKGRSLRGNNNGGTGTKCGRWNPTVEQLKILTDLFRAGLRTPTTDQIQKISTELSFYGKIESKNVFYWFQNHKARERQKRRKISIDFDHHHHQPSTRDVFEISEEDCQEEEKVIETLQLFPVNSFEDSNSKVDKMRARGNNQYREYIRETTTTSFSPYSSCGAEMEHPPPLDLRLSFL
# How the values were obtained:
# Assay in all cases: two-hybrid
# [1] = target: T1, TPR1-BD (TOPLESS-RELATED 1, yeast two-hybrid fusion) (Arabidopsis thaliana)
# [2] = target: T2, AtSK23-BD (Arabidopsis SHAGGY-like kinase 23, yeast two-hybrid fusion) (Arabidopsis thaliana)
# [3] = target: T3, AtSK42-BD (Arabidopsis SHAGGY-like kinase 42, yeast two-hybrid fusion) (Arabidopsis thaliana)
# [4] = target: T4, AtSK13-BD (Arabidopsis SHAGGY-like kinase 13, yeast two-hybrid fusion) (Arabidopsis thaliana)
binder,measurement,setting,value
B1,binding,[1],binds
same,binding,[2],binds weakly
same,binding,[3],no binding
same,binding,[4],no binding
